PubChem BioAssay AID504774, Drosophila RNAi Screening Center, 2011
The screen tested about 23,000 reagents; below is an unselected part of those with a known target gene and a result. 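Values are quantile-normalised luminescence on an arbitrary scale; higher means more cells surviving MMS.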 Reagents against one gene are numbered here. Names joined by + are all predicted targets of the reagent. Not all columns of the deposit are shown.

Assay: 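Knock-downs that shift viability of MMS-exposed cells relative to untreated ones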 (primary screen)
Cell system: Drosophila Kc167 cells
Reagents: long dsRNA against Drosophila genes, about 0.25 µg dsRNA per well
Timing: about 6 days: 3 days knock-down, then 3 days with or without MMS
Conditions: methyl methanesulphonate 0.004% (w/v) for 3 days after knock-down
Measured: 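ATP-dependent luminescence as a measure of live cells in MMS-exposed wells, quantile normalised within each plate, with replicate values also given as a mean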
Direction: mean viability with MMS and viability with MMS: higher = more surviving cells after MMS

CG5758 #1
- mean viability with MMS: 3.31e6
- viability with MMS, replicate 1: 3.78e6

CG5758 #2
- mean viability with MMS: 3.46e6
- viability with MMS, replicate 1: 3.96e6

gw #1
- mean viability with MMS: 3.32e6
- viability with MMS, replicate 1: 3.83e6

gw #2
- mean viability with MMS: 3.23e6
- viability with MMS, replicate 1: 3.76e6

Vha36-3
- mean viability with MMS: 3.61e6
- viability with MMS, replicate 1: 4.06e6

CG11018
- mean viability with MMS: 3.52e6
- viability with MMS, replicate 1: 3.97e6

CG42535
- mean viability with MMS: 3.52e6
- viability with MMS, replicate 1: 3.99e6

b
- mean viability with MMS: 3.56e6
- viability with MMS, replicate 1: 3.97e6

Gr23a
- mean viability with MMS: 3.50e6
- viability with MMS, replicate 1: 3.91e6

CG7140
- mean viability with MMS: 3.78e6
- viability with MMS, replicate 1: 4.29e6

CG34330
- mean viability with MMS: 3.64e6
- viability with MMS, replicate 1: 4.14e6

CG16741
- mean viability with MMS: 3.32e6
- viability with MMS, replicate 1: 3.81e6

CG12674
- mean viability with MMS: 3.49e6
- viability with MMS, replicate 1: 3.97e6

CG6052
- mean viability with MMS: 3.66e6
- viability with MMS, replicate 1: 4.13e6

CG10859
- mean viability with MMS: 3.36e6
- viability with MMS, replicate 1: 3.82e6

CG13000
- mean viability with MMS: 3.41e6
- viability with MMS, replicate 1: 3.81e6

alphaSnap
- mean viability with MMS: 3.41e6
- viability with MMS, replicate 1: 3.84e6

Mst89B
- mean viability with MMS: 3.51e6
- viability with MMS, replicate 1: 4.06e6

RpLP0-like
- mean viability with MMS: 3.57e6
- viability with MMS, replicate 1: 4.09e6

Cyp4e3
- mean viability with MMS: 3.52e6
- viability with MMS, replicate 1: 3.99e6

sau
- mean viability with MMS: 3.24e6
- viability with MMS, replicate 1: 3.76e6

Axs
- mean viability with MMS: 3.72e6
- viability with MMS, replicate 1: 4.20e6

Agpat2
- mean viability with MMS: 3.25e6
- viability with MMS, replicate 1: 3.72e6

Records listed so far whose gene name starts with A or a (3):
alphaSnap
- mean viability with MMS: 3.41e6
- viability with MMS, replicate 1: 3.84e6

Axs
- mean viability with MMS: 3.72e6
- viability with MMS, replicate 1: 4.20e6

Agpat2
- mean viability with MMS: 3.25e6
- viability with MMS, replicate 1: 3.72e6

The results go on:
CG1463
- mean viability with MMS: 3.55e6
- viability with MMS, replicate 1: 4.02e6

CG33116
- mean viability with MMS: 3.56e6
- viability with MMS, replicate 1: 4.05e6

CG12448
- mean viability with MMS: 3.53e6
- viability with MMS, replicate 1: 4.02e6

ND-MLRQ
- mean viability with MMS: 3.47e6
- viability with MMS, replicate 1: 3.85e6

CG32026
- mean viability with MMS: 3.58e6
- viability with MMS, replicate 1: 4.09e6

Cdc23
- mean viability with MMS: 3.13e6
- viability with MMS, replicate 1: 3.36e6

Cog7
- mean viability with MMS: 3.56e6
- viability with MMS, replicate 1: 3.97e6

CG13110
- mean viability with MMS: 3.63e6
- viability with MMS, replicate 1: 4.06e6

Prosalpha6
- mean viability with MMS: 3.12e6
- viability with MMS, replicate 1: 3.55e6

PIG-O
- mean viability with MMS: 3.50e6
- viability with MMS, replicate 1: 3.93e6

CG30172
- mean viability with MMS: 3.67e6
- viability with MMS, replicate 1: 4.11e6

tkv + CR14033 + tRNA:Asp-GTC-2-1 + 1 more
- mean viability with MMS: 3.32e6
- viability with MMS, replicate 1: 3.71e6
